{"source": "patent US8754058B2", "about": "“Inhibitors of FAM3B gene, inhibitor compositions, inhibiting methods and applications of inhibitors in preparing pharmaceuticals” (Suzhou Ribo Life Science Company, Ltd., priority 2009, dated 2014)", "test_system": "FAM3B mRNA in the hepatic tissues", "experiment": "real-time PCR of FAM3B mRNA in hepatic tissues of hepatic adipose infiltration model mice", "assay_type": "in vivo", "conditions": "tail i.v. injection, 15 days, FIG. 3", "note": "Some results were stated once for a whole list of compounds, not compound by compound."}
{"substance": "FAM3B-45: chemically modified mouse FAM3B siRNA (2′-O-methyl sense with cholesterol, 2′-fluoro antisense); 5-CCAGCACUCUCUACAACAUdTdT; 5-AUGUUGUAGAGAGUGCUGGdTdT (sense CCAGCACUCUCUACAACAUTT; antisense AUGUUGUAGAGAGUGCUGGTT; 2'-OMe, 2'-F, cholesterol, further chemistry not given here)", "values": [{"measurement": "inhibitory rate on expression of hepatic FAM3B gene (mRNA)", "result": "higher than 60%"}]}
